Assay results: the supplement of paper PMC12823440, “Inhibitors supercharge kinase turnover through native proteolytic circuits” (Nature, 2025)
The other results are listed elsewhere or left out. The calls rarely recur for the same compound in another form.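 Kinases, fused to nanoluciferase, were expressed in K562 cells; luminescence was measured every 4 h from 2 to 18 h as percent of control (DMSO = 100%, positive control = 0%). A time point is decreased if signal falls significantly (2 sigma). Hits were called by the authors by a rule that is not shown; the count of time points alone does not decide it.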

The chains behind the UniProt entries cited, without tags or fusion partners.
UniProt Q05397, whole entry, looked up: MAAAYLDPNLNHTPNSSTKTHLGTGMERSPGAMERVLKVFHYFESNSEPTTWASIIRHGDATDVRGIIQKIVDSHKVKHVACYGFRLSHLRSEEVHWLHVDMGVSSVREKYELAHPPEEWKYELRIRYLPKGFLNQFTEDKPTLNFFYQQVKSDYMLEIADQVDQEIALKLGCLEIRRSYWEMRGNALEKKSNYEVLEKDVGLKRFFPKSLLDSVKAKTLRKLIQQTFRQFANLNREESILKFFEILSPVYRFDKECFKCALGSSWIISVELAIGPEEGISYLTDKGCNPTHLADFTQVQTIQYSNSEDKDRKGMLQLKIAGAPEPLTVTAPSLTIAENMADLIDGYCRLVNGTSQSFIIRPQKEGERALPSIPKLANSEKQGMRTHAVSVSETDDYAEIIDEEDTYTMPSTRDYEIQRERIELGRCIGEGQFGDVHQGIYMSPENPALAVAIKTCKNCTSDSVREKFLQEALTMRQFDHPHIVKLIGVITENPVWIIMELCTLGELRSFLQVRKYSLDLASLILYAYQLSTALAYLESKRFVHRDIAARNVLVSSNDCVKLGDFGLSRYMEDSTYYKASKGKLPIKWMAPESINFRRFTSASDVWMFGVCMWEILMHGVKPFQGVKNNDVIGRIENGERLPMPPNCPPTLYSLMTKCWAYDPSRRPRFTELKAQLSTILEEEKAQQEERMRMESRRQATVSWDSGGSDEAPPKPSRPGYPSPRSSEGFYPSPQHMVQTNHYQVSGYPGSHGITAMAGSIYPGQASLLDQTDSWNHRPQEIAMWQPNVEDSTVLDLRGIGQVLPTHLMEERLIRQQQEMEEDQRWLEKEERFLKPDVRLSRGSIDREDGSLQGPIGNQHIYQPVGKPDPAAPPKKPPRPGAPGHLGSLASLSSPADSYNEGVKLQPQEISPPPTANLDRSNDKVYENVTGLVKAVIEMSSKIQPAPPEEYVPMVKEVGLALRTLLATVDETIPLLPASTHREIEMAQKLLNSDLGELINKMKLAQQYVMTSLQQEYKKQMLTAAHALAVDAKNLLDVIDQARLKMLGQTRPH

Biological target: PTK2 (UniProt Q05397)
Assay: kinase-Nluc reporter destabilization hit call (1 = scored as downregulated) (binary); higher = compound decreases kinase abundance
Settings: K562; 2-18 h

kinase-Nluc reporter destabilization hit call, inactive:
COc1ccc2nc3ccc(OC)cc3c(SCCCN)c2c1 (10 µM) 0
NC(=O)c1sc2c([N+](=O)[O-])cc(C(F)(F)F)cc2[n+]1[O-] [Cyclapolin 9] (10 µM) 0
CS(=O)(=O)c1ccc([C@@H](CC2CCCC2)C(=O)Nc2nccs2)cc1 (10 µM) 0
C=CC(=O)Nc1cc(Nc2nccc(-c3cn(C)c4ccccc34)n2)c(OCC(F)(F)F)nc1N(C)CCNC [AST5902  (trimesylate)] (2.5 µM) 0
CO/N=C1/C(c2c(O)[nH]c3cc(Cl)c(Cl)cc23)=Nc2ccccc21 (10 µM) 0
Cc1ccc(C2CC(=O)NC(SCC(=O)Nc3nccs3)=C2C#N)cc1 (centres undefined) [Necrostatin-34] (10 µM) 0
O=CN1CCN(c2ccc(C=C3C(=O)Nc4ccccc43)cc2)CC1 (10 µM) 0
CCCS(=O)(=O)N[C@H]1C[C@@H](N(C)c2ncnc3[nH]ccc23)C1 [Abrocitinib] (10 µM) 0
NC(=O)c1cnc(N[C@@H]2CCCC[C@@H]2N)nc1Nc1cccc(-n2nccn2)c1 (2.5 µM) 0
CS[C@@]1(C(=O)Nc2ccc3[nH]nc(-c4ccc(OC(C)C)nc4)c3c2)CCN(CC(=O)N2CC=C(c3ccc(-c4ncn(C)n4)cc3)CC2)C1 (2.5 µM) 0
Fc1ccc(Cl)cc1-c1nc(Nc2ccncc2)c2nccnc2n1 (10 µM) 0
O=C(Nc1ccccc1C(=O)NC1CCCCNC1=O)c1cc2ccccc2s1 (centres undefined) (10 µM) 0
O=C(O)c1c[nH]c2cc(Cl)c(-c3ccc(C4(O)CCC4)cc3)cc12 (10 µM) 0
CN(C[C@@H]1COCCO1)S(=O)(=O)Nc1ccc2ccc3ncc(-c4cnn(C)c4)cc3c(=O)c2c1 (2.5 µM) 0
NC(=O)c1ccccc1Nc1ccnc(Nc2cccc(O)c2)n1 (10 µM) 0
Cc1ccc2c(NS(=O)(=O)c3ccccc3Cl)cccc2c1Oc1ncccc1-c1ccnc(N[C@H]2CCCNC2)n1 (2.5 µM) 0
O=C(Nc1ccc(Cl)cc1)C1CN(C(=O)c2cccc(-c3ccco3)c2)CC(F)(F)C1 (centres undefined) (2.5 µM) 0
COc1ccc(CN2CCC(c3ccc4nc(C(=O)N5CCN(Cc6ccc(C(F)(F)F)cc6)CC5)[nH]c4c3)CC2)cn1 (2.5 µM) 0
CC(C)=CCC[C@](C)(O[C@@H]1O[C@H](CO[C@@H]2O[C@H](CO)[C@@H](O)[C@H](O)[C@H]2O)[C@@H](O)[C@H](O)[C@H]1O)[C@H]1CC[C@]2(C)[C@@H]1[C@H](O)C[C@@H]1[C@@]3(C)CC[C@H](O[C@@H]4O[C@H](CO)[C@@H](O)[C@H](O)[C@H]4O[C@@H]4O[C@H](CO)[C@@H](O)[C@H](O)[C@H]4O)C(C)(C)[C@@H]3CC[C@]12C [Ginsenoside Rb1] (10 µM) 0
COc1cc2ncnc(Nc3cc(Br)c(O)c(Br)c3)c2cc1OC (2.5 µM) 0
CO[C@]1(C(=O)N[C@@H](C)c2ccc(-n3cc(F)cn3)nc2)CC[C@H](c2nc(C)cc(Nc3cc(C)[nH]n3)n2)CC1 [Pralsetinib] (10 µM) 0
CCc1cc(Nc2nccc(-c3c(-c4ccc(OC)c(C(=O)Nc5c(F)cccc5F)c4)nc4ccccn34)n2)c(OC)cc1N1CCC(N2CCN(S(C)(=O)=O)CC2)CC1 (2.5 µM) 0
Cc1nc2c(NCc3cccc(S(C)(=O)=O)c3)nccn2c1-c1ccc(O)c(F)c1 (10 µM) 0
CNC(=O)CN1CCC(Oc2cc3c(Nc4cccc(Cl)c4F)ncnc3cc2OC)CC1 [Sapitinib] (10 µM) 0
COc1ccc(Br)c(C=O)c1O [6-Bromo-2-hydroxy-3-methoxybenzaldehyde] (10 µM) 0
N#C/C(=C/c1ccc(O)c(O)c1)C(=O)N1CCc2ccccc21 [Tyrphostin AG 528] (10 µM) 0
C[C@H](Nc1cc2c(-c3ccc4c(c3)OCO4)noc2cn1)c1ccccc1 (10 µM) 0
CC1(C)CN(C(=O)c2ccc(-c3cccc4nc(NC(=O)C5CC5)nn34)cc2)C1 [Solcitinib] (10 µM) 0

Quoted from the results shown for reference:
kinase-Nluc reporter destabilization hit call, inactive:
COc1ccc2nc3ccc(OC)cc3c(SCCCN)c2c1 (10 µM) 0
NC(=O)c1sc2c([N+](=O)[O-])cc(C(F)(F)F)cc2[n+]1[O-] [Cyclapolin 9] (10 µM) 0
CS(=O)(=O)c1ccc([C@@H](CC2CCCC2)C(=O)Nc2nccs2)cc1 (10 µM) 0
C=CC(=O)Nc1cc(Nc2nccc(-c3cn(C)c4ccccc34)n2)c(OCC(F)(F)F)nc1N(C)CCNC [AST5902  (trimesylate)] (2.5 µM) 0
CO/N=C1/C(c2c(O)[nH]c3cc(Cl)c(Cl)cc23)=Nc2ccccc21 (10 µM) 0

Next part.

kinase-Nluc reporter destabilization hit call, active:
CC(ONC(=O)c1cc(C(F)(F)F)cc(C(F)(F)F)c1)C(=O)Nc1ccc(Cl)cc1 (centres undefined) (2.5 µM) 1
